Experimental data published in paper PMC6824560, “Insight into the relationship between aryl-hydrocarbon receptor and β-catenin in human colon cancer cells” (PLoS ONE, 2019).
These are yes or no findings as the source states them, for the method shown. Some binding calls cover weakened binding; strength is not graded here.

Chains of the proteins cited; added tags and fusions are not shown. Lines headed by an entry give the natural chain unless they say otherwise; changes in a name come on top.
UniProt P35222: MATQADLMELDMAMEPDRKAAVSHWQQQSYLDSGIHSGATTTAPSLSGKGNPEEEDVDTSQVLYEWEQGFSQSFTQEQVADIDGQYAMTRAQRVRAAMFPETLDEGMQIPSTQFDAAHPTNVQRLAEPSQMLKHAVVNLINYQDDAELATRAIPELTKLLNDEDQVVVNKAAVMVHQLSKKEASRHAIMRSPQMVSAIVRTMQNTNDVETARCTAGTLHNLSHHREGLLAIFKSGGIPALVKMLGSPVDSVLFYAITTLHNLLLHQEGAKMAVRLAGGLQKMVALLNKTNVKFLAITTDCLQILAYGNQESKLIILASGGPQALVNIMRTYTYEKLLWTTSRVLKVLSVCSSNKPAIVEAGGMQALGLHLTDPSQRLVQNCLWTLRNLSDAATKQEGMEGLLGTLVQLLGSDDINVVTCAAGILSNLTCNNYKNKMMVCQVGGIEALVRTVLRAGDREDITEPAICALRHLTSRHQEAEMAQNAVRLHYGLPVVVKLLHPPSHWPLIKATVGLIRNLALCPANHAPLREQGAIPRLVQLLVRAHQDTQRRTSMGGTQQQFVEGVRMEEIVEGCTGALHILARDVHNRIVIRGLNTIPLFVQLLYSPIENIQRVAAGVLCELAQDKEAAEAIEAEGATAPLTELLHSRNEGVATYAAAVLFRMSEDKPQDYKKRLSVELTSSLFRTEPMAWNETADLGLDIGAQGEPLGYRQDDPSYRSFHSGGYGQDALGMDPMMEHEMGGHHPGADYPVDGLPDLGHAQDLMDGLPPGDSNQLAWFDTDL
UniProt Q13620: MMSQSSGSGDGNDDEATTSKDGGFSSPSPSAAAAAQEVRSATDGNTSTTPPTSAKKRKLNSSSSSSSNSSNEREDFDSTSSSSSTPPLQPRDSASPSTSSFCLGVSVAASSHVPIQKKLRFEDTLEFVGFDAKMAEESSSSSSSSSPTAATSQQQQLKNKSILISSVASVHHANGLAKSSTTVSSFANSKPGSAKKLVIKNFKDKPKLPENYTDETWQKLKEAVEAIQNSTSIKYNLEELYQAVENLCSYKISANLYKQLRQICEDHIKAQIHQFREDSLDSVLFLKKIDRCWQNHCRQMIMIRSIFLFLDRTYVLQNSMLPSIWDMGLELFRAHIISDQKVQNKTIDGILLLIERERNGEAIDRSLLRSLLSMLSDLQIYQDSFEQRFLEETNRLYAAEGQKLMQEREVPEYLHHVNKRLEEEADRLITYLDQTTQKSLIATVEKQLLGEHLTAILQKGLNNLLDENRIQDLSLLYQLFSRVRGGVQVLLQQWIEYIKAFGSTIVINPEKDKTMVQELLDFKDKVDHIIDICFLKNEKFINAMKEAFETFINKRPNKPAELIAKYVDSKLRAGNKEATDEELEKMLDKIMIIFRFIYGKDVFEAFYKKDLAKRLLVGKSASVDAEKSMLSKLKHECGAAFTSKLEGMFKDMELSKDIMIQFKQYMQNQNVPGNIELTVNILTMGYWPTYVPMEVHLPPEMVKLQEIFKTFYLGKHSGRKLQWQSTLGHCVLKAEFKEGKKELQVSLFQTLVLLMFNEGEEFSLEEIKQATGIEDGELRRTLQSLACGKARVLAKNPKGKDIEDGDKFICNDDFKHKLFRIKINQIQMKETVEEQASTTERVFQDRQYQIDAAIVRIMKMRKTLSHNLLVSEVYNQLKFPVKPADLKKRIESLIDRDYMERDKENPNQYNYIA
UniProt P27540: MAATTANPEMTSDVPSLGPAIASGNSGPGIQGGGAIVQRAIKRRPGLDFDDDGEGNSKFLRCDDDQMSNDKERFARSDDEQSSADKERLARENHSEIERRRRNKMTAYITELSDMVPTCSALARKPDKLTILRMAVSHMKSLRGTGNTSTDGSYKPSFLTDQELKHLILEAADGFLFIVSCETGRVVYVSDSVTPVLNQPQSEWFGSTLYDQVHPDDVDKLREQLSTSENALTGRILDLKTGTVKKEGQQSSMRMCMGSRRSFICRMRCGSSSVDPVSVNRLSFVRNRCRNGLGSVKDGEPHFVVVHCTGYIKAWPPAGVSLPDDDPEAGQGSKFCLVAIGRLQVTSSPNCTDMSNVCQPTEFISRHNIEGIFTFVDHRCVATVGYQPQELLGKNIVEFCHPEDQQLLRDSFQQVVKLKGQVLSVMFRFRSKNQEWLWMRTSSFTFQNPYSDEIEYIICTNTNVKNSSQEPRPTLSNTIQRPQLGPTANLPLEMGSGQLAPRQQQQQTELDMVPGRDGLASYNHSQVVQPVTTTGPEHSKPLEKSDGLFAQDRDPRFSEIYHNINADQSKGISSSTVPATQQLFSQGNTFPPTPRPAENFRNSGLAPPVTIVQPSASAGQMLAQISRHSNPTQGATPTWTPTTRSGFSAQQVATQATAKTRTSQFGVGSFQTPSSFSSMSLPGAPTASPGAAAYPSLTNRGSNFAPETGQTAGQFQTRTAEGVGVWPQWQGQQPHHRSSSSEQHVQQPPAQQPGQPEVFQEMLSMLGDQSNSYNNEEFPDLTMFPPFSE

Tests used:
[1] = target: human AhR fused to Gal4 DNA-binding domain in pGBKT7 (human) (UniProt P35869); assay: two-hybrid; yeast two-hybrid in strain Y187, pGADT7 and pGBKT7 fusions, 1 μM 3MC or 0.1% DMSO for 12 h at 30°C, β-galactosidase read-out (o-nitrophenol-β-D-galactopyranoside); DDB1 or CUL4B co-expressed from pESC in some samples
[2] = target: S37A mutant of β-catenin fused with the GAL4 DNA-binding domain (human) (UniProt P35222); assay: two-hybrid; mammalian two-hybrid in HeLa cells, pBIND (Gal4 DNA-binding domain) and pACT (VP16 activation domain) fusions, pG5Luc reporter, 3MC (1 µM) or DMSO (0.1%) for 16 h
[3] = target: human CUL4B fused to Gal4 DNA-binding domain in pGBKT7 (human) (UniProt Q13620); assay: two-hybrid; yeast two-hybrid in strain Y187, pGADT7 and pGBKT7 fusions, 1 μM 3MC or 0.1% DMSO for 12 h at 30°C, β-galactosidase read-out (o-nitrophenol-β-D-galactopyranoside); DDB1 or CUL4B co-expressed from pESC in some samples

| Molecule | binding [1] | further results |
| --- | --- | --- |
| CUL4B fused with the Gal4 activating domain (from UniProt Q13620 1-913) | no binding | – |
| human Arnt fused to Gal4 activating domain in pGADT7 (from UniProt P27540 1-789) | binds | – |
| human CUL4B fused to VP16 activation domain in pACT vector (from UniProt Q13620 1-913) | – | binding [2]: no binding |
| human β-catenin fused to Gal4 activating domain in pGADT7 (from UniProt P35222 1-781) | no binding | – |
| human AhR fused to Gal4 activating domain in pGADT7 (natural protein, UniProt P35869 1-848, looked up, aryl-hydrocarbon receptor (AhR), human cDNA; also called pGAD-AhR; aryl-hydrocarbon receptor; source: yeast two-hybrid fusion, yeast strain Y187) MNSSSANITYASRKRRKPVQKTVKPIPAEGIKSNPSKRHRDRLNTELDRLASLLPFPQDVINKLDKLSVLRLSVSYLRAKSFFDVALKSSPTERNGGQDNCRAANFREGLNLQEGEFLLQALNGFVLVVTTDALVFYASSTIQDYLGFQQSDVIHQSVYELIHTEDRAEFQRQLHWALNPSQCTESGQGIEEATGLPQTVVCYNPDQIPPENSPLMERCFICRLRCLLDNSSGFLAMNFQGKLKYLHGQKKKGKDGSILPPQLALFAIATPLQPPSILEIRTKNFIFRTKHKLDFTPIGCDAKGRIVLGYTEAELCTRGSGYQFIHAADMLYCAESHIRMIKTGESGMIVFRLLTKNNRWTWVQSNARLLYKNGRPDYIIVTQRPLTDEEGTEHLRKRNTKLPFMFTTGEAVLYEATNPFPAIMDPLPLRTKNGTSGKDSATTSTLSKDSLNPSSLLAAMMQQDESIYLYPASSTSSTAPFENNFFNESMNECRNWQDNTAPMGNDTILKHEQIDQPQDVNSFAGGHPGLFQDSKNSDLYSIMKNLGIDFEDIRHMQNEKFFRNDFSGEVDFRDIDLTDEILTYVQDSLSKSPFIPSDYQQQQSLALNSSCMVQEHLHLEQQQQHHQKQVVVEPQQQLCQKMKHMQVNGMFENWNSNQFVPFNCPQQDPQQYNVFTDLHGISQEFPYKSEMDSMPYTQNFISCNQPVLPQHSKCTELDYPMGSFEPSPYPTTSSLEDFVTCLQLPENQKHGLNPQSAIITPQTCYAGAVSMYQCQPEPQHTHVGQMQYNPVLPGQQAFLNKFQNGVLNETYPAELNNINNTQTTTHLQPLHHPSEARPFPDLTSSGFL | – | binding [3]: no binding |
